Like-named read-outs stand apart in the source and are kept apart here.
System: PEG2 synthesis in plasma

SMILES: COc1ccc2cc([C@H](C)C(=O)O)ccc2c1 [Naproxen, naproxen]
- PEG2 synthesis in plasma (in words) (administration of naproxen): strongly inhibits
- Prostaglandin E2 in the plasma, average value (sample at 18:00, 2 hours after oral 20 mg/kg naproxen (around 16:00)): 21.5 pg/500 μg tissue
- Prostaglandin E2 in the plasma, average value (sample at 20:00, 4 hours after oral 20 mg/kg naproxen (around 16:00)): 23.3 pg/500 μg tissue
- Prostaglandin E2 in the plasma, average value (sample at 22:00, 6 hours after oral 20 mg/kg naproxen (around 16:00)): 20.5 pg/500 μg tissue

Reference: patent US9579330B2, “Use and application regimen of a pharmaceutical composition containing levonorgestrel and a COX inhibitor for on-demand contraception” (priority 2012, dated 2017)
